Some of the results follow. Repeats are few or missing, and single values can be far off.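 The apoptosis fraction was the count of cleaved-PARP antibody-stained nuclei relative to all DNA-stained nuclei, imaged in 1,536-well plates. Screening doses were set so most cells survived, and baseline and induced cleaved-PARP levels vary greatly across cell lines.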

The subject of this test is LB2518-MEL. The test can be described thus: cleaved PARP positive nuclei fraction relative to DMSO control; melanoma cells; higher = more apoptosis. As to conditions: library dose: low library concentration; 72 h.
Turning to `Nc1ncn([C@H]2C[C@H](O)[C@@H](CO)O2)c(=O)n1` [decitabine] + Cc1cc(N2CCOCC2)cc2[nH]c(-c3c(NC[C@@H](O)c4cccc(Cl)c4)cc[nH]c3=O)nc12 [BMS536924] (first compound 0.1 µM, partner dose 0.2 µM), the “cleaved PARP positive nuclei fraction” value was 112%. The same measure for `Cn1c(=O)n(-c2ccc(C(C)(C)C#N)cc2)c2c3cc(-c4cnc5ccccc5c4)ccc3ncc21` + NCC(=O)Nc1ccc(-n2nc(C(F)(F)F)cc2-c2ccc3c(ccc4ccccc43)c2)cc1 [OSU03012] (first compound 0.004 µM, partner dose 1 µM): 121%; for `CS(=O)(=O)CCNCc1ccc(-c2ccc3ncnc(Nc4ccc(OCc5cccc(F)c5)c(Cl)c4)c3c2)o1` [lapatinib] + O=C(Nc1cccc(Cl)c1)Nc1ncc(CCNc2ncnc3ccsc23)s1 [SNS314] (first compound 0.8 µM, partner dose 0.0008 µM): 41.8%. To `CN1CCN(c2ccc3nc(-c4c(N)c5c(F)cccc5[nH]c4=O)[nH]c3c2)CC1` [Dovitinib] + CN(C)S(=O)(=O)c1ccc2c(c1)/C(=C/c1cc3c([nH]1)CCCC3)C(=O)N2 [SU6656] (first compound 0.1 µM, partner dose 0.4 µM) belongs 108%; to `C[C@@H](Oc1cc(-c2cnn(C3CCNCC3)c2)cnc1N)c1c(Cl)ccc(F)c1Cl` [Crizotinib] + Cn1cncc1[C@@](N)(c1ccc(Cl)cc1)c1ccc2c(c1)c(-c1cccc(Cl)c1)cc(=O)n2C [tipifarnib] (first compound 0.2 µM, partner dose 0.01 µM), 127%; to `CO[C@H]1C[C@@H]2CC[C@@H](C)[C@@](O)(O2)C(=O)C(=O)N2CCCC[C@H]2C(=O)O[C@H]([C@H](C)C[C@@H]2CC[C@@H](OCCO)[C@H](OC)C2)CC(=O)[C@H](C)/C=C(\C)[C@@H](O)[C@@H](OC)C(=O)[C@H](C)C[C@H](C)/C=C/C=C/C=C/1C` [everolimus] + O=C(Nc1cccc(Cl)c1)Nc1ncc(CCNc2ncnc3ccsc23)s1 [SNS314] (first compound 0.02 µM, partner dose 0.0008 µM), 60.9%.

For `O=C(O)c1ccc2c(c1)nc(Nc1cccc(Cl)c1)c1ccncc12` + NC(=O)Nc1cc(-c2cccc(F)c2)sc1C(=O)N[C@H]1CCCNC1 [AZD7762] (first compound 0.4 µM, partner dose 0.02 µM), the “cleaved PARP positive nuclei fraction” value turned out to be 62.2%.

Regarding `Cn1c(=O)n(-c2ccc(C(C)(C)C#N)cc2)c2c3cc(-c4cnc5ccccc5c4)ccc3ncc21` + O=C(O)c1ccc(-c2c[nH]c3ncc(-c4ccccc4)cc23)cc1C1CCCC1 [GSK650394] (first compound 0.004 µM, partner dose 0.16 µM), the “cleaved PARP positive nuclei fraction” value stood at 44.1%. The same measure for `O=C(O)c1ccc2c(c1)nc(Nc1cccc(Cl)c1)c1ccncc12` + O=C(O)c1ccc(-c2c[nH]c3ncc(-c4ccccc4)cc23)cc1C1CCCC1 [GSK650394] (first compound 0.4 µM, partner dose 0.16 µM): 44.7%.

`CC(C)C[C@H](NC(=O)[C@H](Cc1ccccc1)NC(=O)c1cnccn1)B(O)O` [Bortezomib] + O=C(CCCCCCC(=O)Nc1ccccc1)NO [vorinostat] (first compound 0.001 µM, partner dose 0.08 µM): the “cleaved PARP positive nuclei fraction” value stood at 229%.

Take `O=C(O)c1ccc2c(c1)nc(Nc1cccc(Cl)c1)c1ccncc12` + O=C(Nc1cccc(Cl)c1)Nc1ncc(CCNc2ncnc3ccsc23)s1 [SNS314] (first compound 0.4 µM, partner dose 0.0008 µM): the “cleaved PARP positive nuclei fraction” value was found to be 58.4%. Turning to `Nc1nc(F)nc2c1ncn2[C@@H]1O[C@H](CO)[C@@H](O)[C@@H]1O` [fludarabine] + C=CCn1c(=O)c2cnc(Nc3ccc(N4CCN(C)CC4)cc3)nc2n1-c1cccc(C(C)(C)O)n1 [MK1775] (first compound 0.2 µM, partner dose 0.02 µM), the “cleaved PARP positive nuclei fraction” value was determined as 110%. The same measure for `Nc1ccn([C@@H]2O[C@H](CO)[C@@H](O)C2(F)F)c(=O)n1` [gemcitabine] + COc1cc(Nc2ncc(F)c(Nc3ccc4c(n3)NC(=O)C(C)(C)O4)n2)cc(OC)c1OC [Tamatinib] (first compound 0.0004 µM, partner dose 0.4 µM): 56.3%; for `Cn1c(=O)n(-c2ccc(C(C)(C)C#N)cc2)c2c3cc(-c4cnc5ccccc5c4)ccc3ncc21` + COc1cc2c(Oc3ccc4[nH]c(C)cc4c3F)ncnc2cc1OCCCN1CCCC1 [cediranib] (first compound 0.004 µM, partner dose 0.4 µM): 185%; for `Cc1cc(Nc2cc(N3CCN(C)CC3)nc(/C=C/c3ccccc3)n2)n[nH]1` + NC(=O)Nc1cc(-c2cccc(F)c2)sc1C(=O)N[C@H]1CCCNC1 [AZD7762] (first compound 0.04 µM, partner dose 0.02 µM): 80.9%. In the case of `Nc1nc(F)nc2c1ncn2[C@@H]1O[C@H](CO)[C@@H](O)[C@@H]1O` [fludarabine] + O=C(Nc1cccc(Cl)c1)Nc1ncc(CCNc2ncnc3ccsc23)s1 [SNS314] (first compound 0.2 µM, partner dose 0.0008 µM), the “cleaved PARP positive nuclei fraction” value worked out at 100%. The same measure for `CS(=O)(=O)CCNCc1ccc(-c2ccc3ncnc(Nc4ccc(OCc5cccc(F)c5)c(Cl)c4)c3c2)o1` [lapatinib] + CN(NC(=O)CC(=O)NN(C)C(=S)c1ccccc1)C(=S)c1ccccc1 [STA4783] (first compound 0.8 µM, partner dose 0.006 µM): 194%. For the compound `CC(C)C[C@H](NC(=O)[C@H](Cc1ccccc1)NC(=O)c1cnccn1)B(O)O` [Bortezomib] + CO[C@@H]1[C@H](N(C)C(=O)c2ccccc2)C[C@H]2O[C@]1(C)n1c3ccccc3c3c4c(c5c6ccccc6n2c5c31)C(=O)NC4 [Midostaurin] (first compound 0.001 µM, partner dose 0.08 µM), the “cleaved PARP positive nuclei fraction” value is 1030%. `C[C@@H](Oc1cc(-c2cnn(C3CCNCC3)c2)cnc1N)c1c(Cl)ccc(F)c1Cl` [Crizotinib] + O=C(O)c1ccc(-c2c[nH]c3ncc(-c4ccccc4)cc23)cc1C1CCCC1 [GSK650394] (first compound 0.2 µM, partner dose 0.16 µM): the “cleaved PARP positive nuclei fraction” value was 138%. As for `CS(=O)(=O)CCNCc1ccc(-c2ccc3ncnc(Nc4ccc(OCc5cccc(F)c5)c(Cl)c4)c3c2)o1` [lapatinib] + NC(=O)Nc1cc(-c2cccc(F)c2)sc1C(=O)N[C@H]1CCCNC1 [AZD7762] (first compound 0.8 µM, partner dose 0.02 µM), the “cleaved PARP positive nuclei fraction” value was 73.7%. Regarding `CNC(=O)c1cc(Oc2ccc(NC(=O)Nc3ccc(Cl)c(C(F)(F)F)c3)cc2)ccn1` [sorafenib] + NC(=O)Nc1cc(-c2cccc(F)c2)sc1C(=O)N[C@H]1CCCNC1 [AZD7762] (first compound 0.4 µM, partner dose 0.02 µM), the “cleaved PARP positive nuclei fraction” value was found to be 72.1%. As to `CN1CCN(c2ccc3nc(-c4c(N)c5c(F)cccc5[nH]c4=O)[nH]c3c2)CC1` [Dovitinib] + NCC(=O)Nc1ccc(-n2nc(C(F)(F)F)cc2-c2ccc3c(ccc4ccccc43)c2)cc1 [OSU03012] (first compound 0.1 µM, partner dose 1 µM), the “cleaved PARP positive nuclei fraction” value was 84.2%. The same measure for `C=C(c1ccc(C(=O)O)cc1)c1cc2c(cc1C)C(C)(C)CCC2(C)C` [Bexarotene] + NC(=O)Nc1cc(-c2cccc(F)c2)sc1C(=O)N[C@H]1CCCNC1 [AZD7762] (first compound 2 µM, partner dose 0.02 µM): 71.1%; for `Cn1c(=O)n(-c2ccc(C(C)(C)C#N)cc2)c2c3cc(-c4cnc5ccccc5c4)ccc3ncc21` + Cn1cncc1[C@@](N)(c1ccc(Cl)cc1)c1ccc2c(c1)c(-c1cccc(Cl)c1)cc(=O)n2C [tipifarnib] (first compound 0.004 µM, partner dose 0.01 µM): 110%. `C[C@@H](Oc1cc(-c2cnn(C3CCNCC3)c2)cnc1N)c1c(Cl)ccc(F)c1Cl` [Crizotinib] + CN(NC(=O)CC(=O)NN(C)C(=S)c1ccccc1)C(=S)c1ccccc1 [STA4783] (first compound 0.2 µM, partner dose 0.006 µM): the “cleaved PARP positive nuclei fraction” value was found to be 252%. In the case of `CC(C)C[C@H](NC(=O)[C@H](Cc1ccccc1)NC(=O)c1cnccn1)B(O)O` [Bortezomib] + COc1cc2c(Oc3ccc4[nH]c(C)cc4c3F)ncnc2cc1OCCCN1CCCC1 [cediranib] (first compound 0.001 µM, partner dose 0.4 µM), the “cleaved PARP positive nuclei fraction” value is 159%.

On to `Cc1cc(Nc2cc(N3CCN(C)CC3)nc(/C=C/c3ccccc3)n2)n[nH]1` + Cc1cc(N2CCOCC2)cc2[nH]c(-c3c(NC[C@@H](O)c4cccc(Cl)c4)cc[nH]c3=O)nc12 [BMS536924] (first compound 0.04 µM, partner dose 0.2 µM), for which the “cleaved PARP positive nuclei fraction” value turned out to be 299%. The same measure for `C[C@@H](Oc1cc(-c2cnn(C3CCNCC3)c2)cnc1N)c1c(Cl)ccc(F)c1Cl` [Crizotinib] + CC1(C)NC(=O)N(c2ccc([N+](=O)[O-])c(C(F)(F)F)c2)C1=O [nilutamide] (first compound 0.2 µM, partner dose 1 µM): 110%. To `Cn1c(=O)n(-c2ccc(C(C)(C)C#N)cc2)c2c3cc(-c4cnc5ccccc5c4)ccc3ncc21` + NC(=O)Nc1cc(-c2cccc(F)c2)sc1C(=O)N[C@H]1CCCNC1 [AZD7762] (first compound 0.004 µM, partner dose 0.02 µM) belongs 83.3%.

(Values after the supplement of paper PMC4604168 (melanoma cell lines).)
